The target of data set [1] is T1, PTK7 (on CCRF-CEM cells) (Homo sapiens) (UniProt Q13308).
T1 sequence (looked up, limits assumed): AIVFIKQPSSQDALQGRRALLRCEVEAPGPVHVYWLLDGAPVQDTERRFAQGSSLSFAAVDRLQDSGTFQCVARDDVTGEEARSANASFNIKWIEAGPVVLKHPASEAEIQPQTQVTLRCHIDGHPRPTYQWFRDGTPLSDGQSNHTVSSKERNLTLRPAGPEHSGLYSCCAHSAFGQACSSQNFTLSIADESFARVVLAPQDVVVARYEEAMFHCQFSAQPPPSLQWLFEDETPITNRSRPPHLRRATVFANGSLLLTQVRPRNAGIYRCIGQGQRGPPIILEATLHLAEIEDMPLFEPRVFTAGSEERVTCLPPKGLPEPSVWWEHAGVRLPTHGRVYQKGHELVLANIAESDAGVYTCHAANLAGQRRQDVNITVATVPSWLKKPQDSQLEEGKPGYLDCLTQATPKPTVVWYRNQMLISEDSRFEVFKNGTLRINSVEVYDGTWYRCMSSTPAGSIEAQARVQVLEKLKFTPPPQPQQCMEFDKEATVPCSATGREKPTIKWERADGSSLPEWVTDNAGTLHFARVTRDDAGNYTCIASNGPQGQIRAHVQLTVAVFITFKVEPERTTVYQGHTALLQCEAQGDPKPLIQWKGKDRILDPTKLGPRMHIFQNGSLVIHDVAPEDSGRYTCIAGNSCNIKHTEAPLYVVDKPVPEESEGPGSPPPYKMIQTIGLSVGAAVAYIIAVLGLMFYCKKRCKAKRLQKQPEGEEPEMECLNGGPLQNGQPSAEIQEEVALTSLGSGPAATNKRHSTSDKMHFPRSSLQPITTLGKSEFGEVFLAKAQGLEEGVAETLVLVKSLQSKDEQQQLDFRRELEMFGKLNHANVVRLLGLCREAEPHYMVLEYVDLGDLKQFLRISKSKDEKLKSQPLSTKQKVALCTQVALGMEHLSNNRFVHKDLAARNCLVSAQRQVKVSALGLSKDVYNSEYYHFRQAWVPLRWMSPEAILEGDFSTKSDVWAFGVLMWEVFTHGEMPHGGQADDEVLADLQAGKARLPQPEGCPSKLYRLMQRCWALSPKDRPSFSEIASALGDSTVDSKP
Put plainly: binding assay. Particulars: 5'-biotin, protein on the cell surface, protein details: native membrane protein on CCRF-CEM cells (ATCC), label: biotin, single-stranded DNA.

The test system of data set [2] is Toledo cell surface (sgc8c non-target cells) (Homo sapiens). Put plainly: binding assay. Particulars: 5'-biotin; Toledo control cells removed by D-PBS wash; 8 non-target cells among a few hundred CCRF-CEM after 10 samples; protein on the cell surface; protein details: Toledo diffuse large-cell lymphoma cells (ATCC); label: biotin; single-stranded DNA.

Results from cells or extracts need not show a direct contact. For part of these data: Protein sequences can lack the tags named with them. For at least one entry, the source does not settle the construct or the ends of the probe. For part of these data: No signal at the amounts used counts as a negative.

Broadly, the Kd is the concentration at which binding is half-saturated. As for “TTTTTTTTTATCTAACTGCTGCGCCGCCGGGAAAATACTGTACGGTTAGA [sgc8c biotinylated with polyT(9) spacer]”, the binding result in data set [1] (CCRF-CEM cell capture on aptamer-functionalized microchamber, D-PBS, room temperature, about 80% of cells released at 48 C, 5 uL/min, 2 min) was “binds”; in data set [2] it was “no binding”. Further, in data set [1] (CITED (no measurement described), stated for sgc8c aptamer, target CCRF-CEM cells), the Kd came out at 0.78 nM.

For the origin of these results see US20140296095.
